The exact form of at least one protein or probe is not confirmed. At least one verdict was read from the data and is not stated in words by the source.

Protein sequences, listed by entry. Tags and fused reporters are not part of them. Residues count along the entry.
UniProt Q05066, 57-141 Y127A: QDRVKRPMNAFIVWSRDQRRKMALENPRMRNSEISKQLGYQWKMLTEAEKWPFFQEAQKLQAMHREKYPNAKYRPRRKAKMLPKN

The data set concerns the target SRY HMG box Y72A Y127A (human) (UniProt Q05066). In words: steady-state FRET; stopped-flow FRET. As to conditions: faster dissociation, features similar to Y72C/Y72H; FRET: 10 mM potassium phosphate, 10 mM Tris-HCl, 140 mM KCl, pH 8.0, 15 and 37 C, 25 nM DNA (Kd); sf-FRET 1 uM complex + 20 uM unlabelled DNA at 10, 15, 25, 37 C; recombinant protein; residues 57-141.

Take “TCGGTGATTGTTCAG (double strand) [15-bp SRY site, FRET-labelled]”: the binding result is “binds”.

For the origin of these results see paper PMC9771472.
